The shares of active, inactive and inconclusive entries below differ from those in the screen. A potency beside an inconclusive call is a rough fit, not a confirmed value. The source made the active and inactive calls. Calls come from the whole dose curve; as a rule, active = well fitted inhibition curve with a large enough effect; inconclusive = small, poorly fitted or top-dose-only effect, or effect the other way; inactive = no such curve, though single readings can be large or run the other way.
Assay: qHTS Assay for Inhibitors of Fructose-1,6-bisphosphate Aldolase from Giardia Lamblia: Giardia lamblia growth inhibition (AID 2785); note: nearly all actives have a fitted effect of over 70% in size
Details: Giardia lamblia trophozoite growth inhibition; activity change, negative = inhibition: at 57.5 µM (top of the series)
How it was run: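 G. lamblia WB trophozoites (100 cells/well) in modified TYI-S-33 medium, pH 7.0, were exposed to pin-transferred compounds or DMSO for 48 h at 37C in sealed bags. Viability was read as ATPlite luminescence after 20 min at room temperature.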
% is set by controls: 0 for no effect and ±100 for the full control effect; potency is the fitted concentration of half-maximal effect.

Activity change, negative = inhibition, inconclusive:
CC(=O)N1CCN(C(=O)CSc2nc3c(cnn3-c3ccccc3)c(=O)[nH]2)CC1 80.1% [activator]
COc1ccc(C(=O)NC(=S)N2CCOCC2)cc1Br 52% [activator]
Cc1cc(C)nc(NN2C(=O)C=CC2=O)n1 83.3% [activator]

Activity change, negative = inhibition, inactive:
C=CCNC(=S)Nc1ccccc1-c1nnc2n1CCCCC2 10.2% [at 10.4 µM]
Cc1ccc(/C(=N/Nc2ncnc3ccccc23)C(=O)O)cc1 15.6%
COc1ccc(S(=O)(=O)N2CCC(N3CCN(Cc4ccccc4)CC3)CC2)cc1 63.4%

Potency, active:
COc1cc(OC)cc(C(=O)NNC(=S)NC(=O)c2cccnc2)c1 15.8 µM

Potency, inconclusive:
COc1ccc(-c2nnc(NC(=O)c3ccccc3C)o2)cc1 44.7 µM [inhibitor, single point]
COc1cccc(C(=O)NC(=S)Nc2ccccc2N2CCCCC2)c1 70.8 µM [inhibitor, single point]
CC1CN(CCCCN2C(=O)c3ccccc3C2=O)CC(C)O1 (stereo not drawn) 25.1 µM [inhibitor, partial curve, poor fit]
CC(=O)c1ccc(N=Nc2c(C)[nH]n(-c3ccccc3)c2=O)cc1 35.5 µM [inhibitor, single point]
O=C(N/N=C/c1ccccn1)c1cc(C2CC2)[nH]n1 56.2 µM [inhibitor, single point]
COc1ccccc1CNC1CCCc2ccccc21 (stereo not drawn) 50.1 µM [inhibitor, single point]

Quoted from the listing, 2 compounds:
Potency, inconclusive:
CC(=O)c1ccc(N=Nc2c(C)[nH]n(-c3ccccc3)c2=O)cc1 35.5 µM [inhibitor, single point]
O=C(N/N=C/c1ccccn1)c1cc(C2CC2)[nH]n1 56.2 µM [inhibitor, single point]
